# Assay results taken from PubChem BioAssay AID504842 (National Center for Advancing Translational Sciences (NCATS), 2011).
# The whole screen tested about 330,000 compounds, of which about 100 (0.03%) were called active. The shares of active, inactive and inconclusive entries below differ from those in the screen. The call rests on the fitted dose curve; in most records, active means well fitted inhibition curve with a large enough effect; inconclusive means small, poorly fitted or top-dose-only effect; inactive means flat fitted curve, though single readings scatter. A potency beside an inconclusive call is a rough fit, not a confirmed value.
# System: Chaperonin Mm-Cpn (Methanococcus maripaludis)
# Assay: Inhibitors of TCP-1 ring complex (TRiC) of Methanococcus maripaludis (MmCpn): qHTS; further: nearly all actives have a fitted effect of over 80% in size;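 on potency: enzyme at 25 nM with ATP substrate at 10 µM during the reaction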
# Conditions: purified Mm-Cpn ATPase, ADP Transcreener TR-FRET; series mostly up to 76.9 µM; activity, negative = inhibition: at the top concentration
# Text: The eukaryotic chaperonin TRiC (for TCP-1 ring complex) is an essential and conserved chaperone required for the folding and activation of 10-15% of the proteins encoded by the human genome. […] The TRiC complex consist of two stacked 7-9 membered rings, each containing a central cavity. Substrates are folded within the cavity in an ATP-dependent manner. TRiC is a complex of eight different, essential proteins. As each of the genes encoding the eight subunits is essential for cell viability and no protocol has been developed to over-express this enzyme to high levels. That is why several groups studying the TRiC chaperonin have turned to the archaeal homolog of TRiC, Methanococcus maripaludis (Mm-CPN), and have used this enzyme as a model system for the study of the type II chaperonin family. Small molecule inhibitors of the Mm-CPN enzyme would be extremely useful to study the mechanism of chaperonin activity. Importantly, TRiC and Mm-CPN both require ATP hydrolysis for function. Furthermore, the ATP binding sites are highly conserved among these type II chaperonins. This provides us with an easy, well tested and straightforward assay to identify inhibitors of chaperonin activity. The Mm-CPN assay was developed in 1536-well plate format using the HTRF Transcreener ADP assay kit (Cisbio, Bedford, MA). This assay applied the time resolved fluorescence resonance energy transfer (TR-FRET) principle. ATP in the presence of Mm-CPN is converted to ADP + Pi. An antibody labeled with Eu3+-Cryptate specific and bound to ADP labeled with […] (d2) competes with the unlabeled ADP generated by Mm-CPN. The resulting TR-FRET signal is inversely proportional to the concentration of ADP in the sample. In this assay a reduction in TR-FRET signal is observed with ATP turnover. NIH Chemical Genomics Center [NCGC] NIH Molecular Libraries Probe Centers Network [MLPCN] MLPCN Grant: DA030554-01A1 Assay Submitter (PI): Judith Frydman, Stanford University
# Purified Mm-CPN was supplied by the laboratory of Dr. Judith Frydman. Protein samples were stored at -80C as single use aliquots. Protein was thawed in ambient temperature water bath and placed on ice once thawed. Buffer was prepared fresh day of screen. The buffer composition below was used to prepare the working solution of the Mm-CPN protein and ATP substrate. The buffer is comprised of 30 mM TRIS pH 7.4, 100mM KCl, 5mM MgCl2, and 1mM DTT. A final concentration of 25nM Mm-CPN and 10uM ATP per well were used in the screen. Instructions according to the manufacturer were followed for the ADP Transcreener kit. Used 1536 well Greiner white, medium binding (MB), solid bottom plates. Plates were read on the PerkinElmer EnVision plate reader using Excitation = 320 nm and Emission = […], 665 nm. Protocol- 1.Dispense 1.5ul per well of working [Mm-CPN] = 50nM (or 75 ng / well) 2.Spin plate at 1000 rpm for 30 seconds 3.23nl of compound transferred per well 4.Incubate at 37degC for 10 minutes 5.Dispense 1.5ul per well of working [ATP] = 20uM 6.Incubate at 37degC for 30 minutes 7.Dispense 3ul per well of Anti-ADP Cryptate / ADP-d2 mix (prepared as instructed by Cisbio) 8.Incubate at ambient for 30 minutes 9.Read using EnVision
# On the % scale 0 is the no-effect control and ±100 the full control effect; potency means the concentration at half of the fitted maximal effect.
Structure (SMILES),Potency,"activity, negative = inhibition"
Cc1cc(C(=O)OC(C)C(=O)Nc2cccc(S(=O)(=O)N3CCOCC3)c2)c(C)o1 (configuration not stated),"inconclusive: 22.4 µM [inhibitor, single point]",
CCOCCCNC(=O)c1cc(-c2ccc(Br)s2)nc2ccccc12,"inconclusive: 89.1 µM [inhibitor, partial curve, poor fit]",
N/C(=N\N=C\c1cccc([N+](=O)[O-])c1)c1nonc1N,"inconclusive: 89.1 µM [inhibitor, single point]",
CNC(=O)c1cc(C(=O)c2ccccc2Br)c[nH]1,"inconclusive: 22.4 µM [inhibitor, single point]",
Cc1c(NC(=O)COC(=O)c2ccccc2Cl)c(=O)n(-c2ccccc2)n1C,,inactive: -0.864%
CCN1CCN(C(=S)Nc2sc(C)c(-c3ccccc3)c2C(=O)OC)CC1,"inconclusive: 20 µM [inhibitor, single point]",
COc1ccc(F)cc1S(=O)(=O)NCCCn1ccnc1,"inconclusive: 100 µM [inhibitor, partial curve, poor fit]",
CC(C)N(CC(N)=O)C(=O)c1sc2cc(F)ccc2c1Cl,"inconclusive: 100 µM [inhibitor, single point]",
COc1ccccc1-n1cnnc1SCC(=O)Nc1nc(C)c(Cl)cc1Cl,"inconclusive: 50.1 µM [inhibitor, single point]",
CN(C)CCCSc1nc2ccccc2s1,"inconclusive: 20 µM [inhibitor, single point]",
S=c1[nH]cc(-c2ccccc2)[nH]1,,inactive: 2.38%
Cc1cc2cc(C(c3nnnn3Cc3ccco3)N3CCc4ccccc43)c(=O)[nH]c2cc1C (configuration not stated),"inconclusive: 22.4 µM [inhibitor, single point]",
COc1cccc2cc(C(C)N(CCCN3CCOCC3)C(=S)Nc3c(C)cccc3C)oc12 (configuration not stated),,inactive: -1.25%
O=C(O)COC(=O)C1C(c2ccccc2)C(C(=O)O)C1c1ccccc1 (configuration not stated),"inconclusive: 22.4 µM [inhibitor, single point]",
Cc1ccc2nc(-c3ccc(NS(=O)(=O)c4c(C)n(C)c(=O)n(C)c4=O)cc3)sc2c1,"inconclusive: 70.8 µM [inhibitor, single point]",
CC(C)CCN1CCNC(=O)C1CC(=O)Nc1ccc(F)cc1 (configuration not stated),"inconclusive: 100 µM [inhibitor, single point]",
O=C(NCC#CCSc1nnc(-c2cccc3ccccc23)o1)c1cccs1,"inconclusive: 112 µM [inhibitor, single point]",
O=C(COc1ccc(Cl)cc1Cl)Nc1cccc(-c2ccc(N3CCOCC3)nn2)c1,"inconclusive: 89.1 µM [inhibitor, partial curve, poor fit]",
CCSc1nc2ccccc2n1Cc1ccccc1F,,inactive: 3.07%
c1cc2c(cc1C1CCCCC1)c1c3n2CCCNC3CCC1 (configuration not stated),,inactive: -0.891%
Cc1cccc(NS(=O)(=O)c2ccc(C)c(C(=O)NCc3cccnc3)c2)c1,"inconclusive: 89.1 µM [inhibitor, single point]",
COc1ccccc1N1CCN(Cc2cccc(OC)c2OC)CC1,,inactive: -0.159%
CCOc1ccc(C(=O)Nc2cccc(-c3ccc(N4CCOCC4)nn3)c2)cc1OCC,,inactive: -0.555%
O=C(CN(c1cc(Cl)ccc1Cl)S(=O)(=O)c1ccccc1)N1CCOCC1,"inconclusive: 100 µM [inhibitor, single point]",

Structure (SMILES),Potency,"activity, negative = inhibition"
O=C(CSc1nc(-c2ccco2)cc(C(F)(F)F)n1)NCc1cccs1,"inconclusive: 22.4 µM [inhibitor, single point]",
CCCCC1C2=C(CC(C)(C)CC2=O)OC2=C1C(=O)CC(C)(C)C2,,inactive: -0.365%
CCOC(=O)c1c(NC(=O)C2C3C=CC(C3)C2C(=O)O)sc2c1CCC(CC)C2 (configuration not stated),,inactive: -3.83%
CC(=O)Nc1cc(C(=O)OCC(=O)c2ccc(C)cc2)ccc1C,,inactive: 0.738%
Cc1ccc(CN2CCN(Cc3c(C)nn(-c4ccc(F)cc4)c3C)CC2CCO)o1 (configuration not stated),"inconclusive: 17.8 µM [inhibitor, single point]",
Cc1cccc(C)c1Nc1nnc(SCC(=O)c2ccc(Br)s2)s1,"inconclusive: 141 µM [inhibitor, partial curve]",
CCNC(=O)Cc1c(OC)ccc2cc(Br)ccc12,"inconclusive: 10 µM [inhibitor, single point]",
O=C(O)c1ccc(NC2=C(Cl)C(=O)c3ccccc3C2=O)cc1,"inconclusive: 17.8 µM [inhibitor, single point]",
O=C(Nc1cccc(S(=O)(=O)Nc2ccc(Cl)cc2)c1)c1cc2c(s1)CCCC2,"inconclusive: 89.1 µM [inhibitor, single point]",
CC(=O)Nc1ccc(NC(=O)CCc2nc3ccccc3c(=O)[nH]2)cc1,"inconclusive: 70.8 µM [inhibitor, single point]",
C=CCN(C(=O)CC(NC(C)=O)c1ccccc1)c1nc(-c2ccc(S(C)(=O)=O)cc2)cs1 (configuration not stated),"inconclusive: 100 µM [inhibitor, partial curve, poor fit]",
Cc1cc(Sc2ncnc(N)c2[N+](=O)[O-])ncn1,,inactive: -1.13%
COc1c(C(=O)Nc2ccc(Br)cn2)ccc2ccccc12,"inconclusive: 89.1 µM [inhibitor, single point]",
CCOC(=O)c1nc(S(C)(=O)=O)ncc1Cl,,inactive: 0.768%
CC(=O)c1sc(Nc2ccccn2)nc1C,"inconclusive: 178 µM [inhibitor, partial curve, poor fit]",
CCOc1ccc(OCC(=O)OCC(=O)N2CCN(C(=O)c3ccco3)CC2)cc1,,inactive: -4.43%
CC1C(=O)C(C)(C)C(=O)OC1c1ccccc1 (configuration not stated),"inconclusive: 50.1 µM [inhibitor, single point]",
COc1cc(/C=N/Nc2snc(SC)c2C#N)ccc1O,,inactive: 1.11%
COc1ccc(SCC(=O)Nc2ccccc2Cl)cc1,"inconclusive: 17.8 µM [inhibitor, single point]",
COc1ccc(N=C2C(=O)Nc3c(C)cccc32)cc1,,inactive: 0.985%
CNC(=S)N/N=C(\C)c1ccc(Cl)s1,,inactive: 2.91%
Cn1nc(-c2ccccc2)c2cc([N+](=O)[O-])ccc21,"inconclusive: 17.8 µM [inhibitor, single point]",
CCOc1nc(NC2CCCCC2)nc(NC(C)(C)C)n1,"inconclusive: 15.8 µM [inhibitor, single point]",
c1ccc2cc(CSCc3nc4ccccc4[nH]3)ccc2c1,,inactive: -2.17%

# Among those listed so far, 5 have bromine.
Structure (SMILES),Potency,"activity, negative = inhibition"
CCOCCCNC(=O)c1cc(-c2ccc(Br)s2)nc2ccccc12,"inconclusive: 89.1 µM [inhibitor, partial curve, poor fit]",
CNC(=O)c1cc(C(=O)c2ccccc2Br)c[nH]1,"inconclusive: 22.4 µM [inhibitor, single point]",
Cc1cccc(C)c1Nc1nnc(SCC(=O)c2ccc(Br)s2)s1,"inconclusive: 141 µM [inhibitor, partial curve]",
CCNC(=O)Cc1c(OC)ccc2cc(Br)ccc12,"inconclusive: 10 µM [inhibitor, single point]",
COc1c(C(=O)Nc2ccc(Br)cn2)ccc2ccccc12,"inconclusive: 89.1 µM [inhibitor, single point]",

# (more compounds)

Structure (SMILES),Potency,"activity, negative = inhibition"
O=C(CN1CCCCCCC1)Nc1cccc(Cl)c1Cl,"inconclusive: 22.4 µM [inhibitor, partial curve, poor fit]",
Cc1cccc2cc(C#N)c(NCCNS(=O)(=O)c3ccc4c(c3)OCCO4)nc12,,inactive: -0.0322%
COc1ccc(NC(=O)CN2C(=O)COc3ccc(S(=O)(=O)N4CCCCCC4)cc32)cc1,"inconclusive: 89.1 µM [inhibitor, single point]",
Cc1cc(C)cc(OCC(=O)Nc2nc(-c3ccccn3)cs2)c1,"inconclusive: 89.1 µM [inhibitor, single point]",
Cc1ccc(CNC(=O)c2ccccc2N(C)S(C)(=O)=O)cc1,,inactive: 0.803%
O=C(COC(=O)Cn1cnc2ccccc2c1=O)NCC12CC3CC(CC(C3)C1)C2,"inconclusive: 56.2 µM [inhibitor, single point]",
CC(=O)c1ccc(NC(=O)N2CCc3ccccc3C2)cc1,"inconclusive: 224 µM [inhibitor, partial curve, poor fit]",
CC1CCN(C(=O)CSc2nncn2-c2ccccn2)CC1,,inactive: 1.67%
COc1cc(OC)cc(-c2c(C#Cc3ccsc3)c3cc(-c4ccc(OC)nc4)ccc3n2C)c1,"inconclusive: 251 µM [inhibitor, partial curve, poor fit]",
CCCn1nc(C(=O)OCC(=O)Nc2ncc(Cl)c(C)c2Cl)c2ccccc2c1=O,"inconclusive: 89.1 µM [inhibitor, single point]",
Cc1ccccc1OCCNc1ccc(C(F)(F)F)cc1[N+](=O)[O-],,inactive: -2.65%
CC(=O)Nc1cccc(OCC(=O)NS(=O)(=O)c2ccc(Cl)cc2)c1,,inactive: -0.238%
COC(=O)C(Cc1ccc(O)cc1)NC(=O)c1ccc2c(c1)OCCO2 (configuration not stated),"inconclusive: 12.6 µM [inhibitor, single point]",
C/C(=N\NC(=O)c1cccnc1)c1ccccc1,"inconclusive: 6.31 µM [inhibitor, single point]",
O=C(O)COc1cccc(/C=C2/SC(=S)N(Cc3ccccc3)C2=O)c1,,inactive: -17.1%
Fc1ccccc1C1c2cccn2CCN1C(=S)Nc1ccc(Br)cc1 (configuration not stated),"inconclusive: 447 µM [inhibitor, partial curve, poor fit]",
N#Cc1ccsc1NC(=O)COC(=O)c1cc(Br)ccc1O,"inconclusive: 79.4 µM [inhibitor, single point]",
CCOc1ccc(S(=O)(=O)N2CCN(c3ccccc3OC)CC2)c2cccnc12,"inconclusive: 22.4 µM [inhibitor, single point]",
COC(=O)c1sc(NC(=O)C(C)C)c(C(=O)OC)c1C,"inconclusive: 28.2 µM [inhibitor, partial curve, poor fit]",
Cn1c(SCC(=O)NCc2cccs2)nnc1-c1ccc(O)cc1,,inactive: 2.09%
O=C(O)CSc1nnc(COc2cccc3cccnc23)n1-c1cccc(C(F)(F)F)c1,,inactive: -0.849%
COCC(=O)OCC(=O)c1cc(C)n(-c2ccc(Br)cc2)c1C,,inactive: 0.617%
CSc1ccccc1-c1n[nH]c(=S)o1,"inconclusive: 63.1 µM [inhibitor, partial curve, poor fit]",
COc1cccc(CC(NC(C)=O)C(=O)NC2CCN(c3nc(C)cc(C)c3C#N)CC2)c1OC (configuration not stated),"inconclusive: 282 µM [inhibitor, partial curve, poor fit]",
